Assay results as given in article PMC10163288.
The list shows a part of the results.

B1: il2ra_site2_3nfp_sap_19_mot_9cf93245260f2973e193b933f07ad219_0001_000000192_0001_54_65_H_._HHH_b2_06761_0001_0000300029_0000001_0_0001 (protein)
chain: SSSSDEHHRVWELIHEAFELLRRGNPEEAEEVVREALEIARELGDEVARRSAEELLKAIEQSSSS
B2: il2ra_site1_3nfp_normal_mot_HHH_b1_02681_af2_000000162_0001_42_56_H_._HHH_b2_02997_0001_0000500033_0000001_0 (protein)
chain: SSSSDSVEIAKEVDELLRRIVKTDDDEEQRELERLVKELAEEANSPLAERLLRQLEELLNSSSSS
B3: il2ra_site1_2b5i_normal_mot_HHH_b2_04353_af2_000000128_0001_1_17_H_._HHH_b2_00272_af2_0001_0000400018_0000001_0_af2pred_0001_af2pred_1 (protein)
chain: SSSSSDEEEEVLELYREASRLWQNGDPEEARRVLEQALEIAEELNDERIAKDIEHILKLASSSSS
B4: il2ra_site1_2b5i_sap_15_mot_HHH_b1_02715_000000105_0001_23_40_H_._9daacd37e3baa650618043516f9fc948_0001_af2_0001_0000300013_0000001_1_0001_af2pred_0001_af2pred_ … (protein)
chain: SSSSDEAAEEAWELMREANELLRNGDPEEARKVLEEALELAERAGSKSLAKSIEVMLRLFESSSS
B5: il2ra_site2_2erj_normal_mot_HHH_b1_04810_000000187_0001_1_15_H_._HHH_b1_06471_af2_0001_0000100004_0000001_0 (protein)
chain: SSSSDEEERLKELEEQLEKLLEEGDEEELAEVLFELLELARQLQDDEAVRLAWRALRYILSSSSS
B6: il2ra_site1_1z92_sap_21_mot_HHH_b2_00026_af2_000000137_0001_19_35_H_._HHH_b1_07606_0001_0000200013_0000001_0_0001_af2pred_0001_af2pred_1 (protein)
chain: SREEQEEEVKEAAENNDPELLRELLELAERDAGDPRLATQFLVLLIARVLNIPPEEARKIVEEVK
B7: il2ra_site2_2erj_normal_mot_HHH_b1_08162_af2_000000254_0001_40_56_H_._HHH_b2_07130_0001_0000100005_0000001_0 (protein)
chain: SSSSDLEEEVERLLEEAKRLLEEGNPEEARKVLSRAFEIAYQLGNIELASEIIELAEKIVNSSSS
B8: il2ra_site2_2erj_normal_mot_HHH_b2_06603_af2_000000059_0001_40_56_H_._HHH_b1_03372_0001_0000100007_0000001_0_af2pred_0001_af2pred (protein)
chain: SSSSDEEELAELLNRIARALMRGDEEEVRELVERLRELAEELNDEEAERSVEFVERILKGSSSSS
B9: il2ra_site1_3nfp_normal_mot_HHH_b1_01231_af2_000000170_0001_1_16_H_._HHH_b1_01231_0001_0000400032_0000001_0 (protein)
chain: SSSSDEEARRLLQEALRLAFEGDAEEAERVLREAEEIAERDGNEALVKQIELALKAIERLLSSSS
B10: il2ra_site1_2b5i_sap_16_mot_HHH_b1_01346_af2_000000027_0001_1_20_H_._HHH_b1_01815_0001_0000500021_0000001_0_0001_af2pred_dldesign_0_af2pred (protein)
chain: SSSSDEKYDEVDRLFNEALKLKQAGKKEEAIKKLEEALELAKKLKDPKIIAELQTFLDWLKSSSS
B11: il2ra_site2_2erj_normal_mot_6ec3e94b46d95805cdcdc10c0c108f03_0001_af2_000000040_0001_36_50_H_._HHH_b1_04625_0001_0000500028_0000001_0 (protein)
chain: SSSSDEELKFAYEAANRLMHLISNGNPEEARELVEEAREELERLGNPELAEALEEHFRLLRSSSS
B12: il2ra_site1_3nfp_normal_mot_HHH_b1_05162_af2_000000139_0001_1_18_H_._HHH_b1_01295_af2_0001_0000600036_0000001_0 (protein)
chain: SSSSSNERREIQELIKEATELSHEGNPEEAQKVLERALELAEEFGDELARRFIEHLLKLLSSSSS
B13: il2ra_site2_2erj_normal_mot_HHH_b1_07186_000000032_0001_43_57_H_._HHH_b1_08183_af2_0001_0000300017_0000001_0 (protein)
chain: SSSSDEIEERLVELILELHELLKEGDEEEIERVLEEIEKLAKEANTPIFLRYAELAFKDSSSSSS
B14: il2ra_site2_2erj_sap_16_mot_HHH_b2_06726_000000006_0001_1_16_H_._HHH_b1_02584_0001_0000700016_0000001_0_0001 (protein)
chain: SSSSDEEELKELLKEAEELLENGNPEEAWEVLRRAATLAWELNDFELWSKIAELLREIARSSSSS
B15: il2ra_site1_1z92_sap_23_mot_HHH_b1_08504_af2_000000168_0001_42_54_H_._HHH_b1_06710_0001_0000100005_0000001_0_0001 (protein)
chain: SSSDEEELKRSLRVAVKMAVELLGLDEEERRELEELAEELAERGVDPLEALKILDELARRLSSSS
B16: il2ra_site1_3nfp_normal_mot_HHH_b1_08357_af2_000000270_0001_1_19_H_._HHH_b1_08168_af2_0001_0000800059_0000001_0 (protein)
chain: SSSSDEWEELWRLIRELIELQRQGDEEEFEELFEEVIRLARELNDENAVRAAELVARAHNSSSSS
B17: il2ra_site1_3nfp_normal_mot_HHH_b1_08723_000000044_0001_1_15_H_._HHH_b1_04612_af2_0001_0000600036_0000001_0_af2pred_0001_af2pred (protein)
chain: SSSSSEKEELEELLREAHELYENGNPEEARKVLEEAIELAEELNSENAVKFLRAILRLAKSSSSS
B18: il2ra_site1_1z92_sap_10_mot_HHH_b2_07060_000000038_0001_38_54_H_._HEEHE_2030_0001_0000100002_0000001_0_0001_af2pred_0001_af2pred_1 (protein)
chain: SLEELLQRAVEDIARLAGVPSFEVEVHNGHVEVHLKGDETRARTAAKIIEELAREAGVPVEVEVE

Biological target: il2ra, P01589
Assay: yeast display titration

Apparent Kd, inactive:
B1 no binding seen, B2 > 139 nM, B3 no binding seen, B4 no binding seen, B5 no binding seen, B6 no binding seen, B7 no binding seen, B8 no binding seen, B9 no binding seen, B10 no binding seen, B11 no binding seen, B12 no binding seen, B13 no binding seen, B14 no binding seen, B15 no binding seen, B16 no binding seen, B17 no binding seen, B18 no binding seen
